Source: the supplement of paper PMC7661543
± gives the standard deviation of the averaged measurements. The effect of the compound repeats well; differences between the knockouts mostly do not.

What was measured:
HCC-38 = experiment: relative cell number vs DMSO control (72 h) (% of DMSO); higher = less growth inhibition (more cells)
Protocol: (§1)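 QMAP-Seq: a pool of 5 breast cancer cell lines (ZR-75-1, SKBR3, HCC-38, MDA-MB-231, BT-20), each carrying 12 doxycycline-inducible Cas9 sgRNA perturbations (11 knockouts plus non-targeting sgNT), was treated with compounds for 72 h at four 10-fold doses (10 nM-10 uM or 1 nM-1 uM range). Barcodes were amplified and sequenced, and cell number was interpolated from 293T spike-in standard curves. The result is expressed as % of the median of DMSO wells. Two biological replicates.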

BT-20 = experiment: as above
Protocol: as §1

COC(=O)[C@]12CCC(C)(C)C[C@H]1[C@H]1C(=O)C=C3[C@@]4(C)C=C(C#N)C(=O)C(C)(C)[C@@H]4CC[C@@]3(C)[C@]1(C)CC2 [BardoxoloneMethyl]
relative cell number
Details	BT-20	HCC-38
sgRNA knockout: sgATF3, 10 nM	87.6 ± 4.7	95.6 ± 13
sgRNA knockout: sgATF3, 100 nM	81.88 ± 0.13	94.8 ± 6.3
sgRNA knockout: sgATF3, 1000 nM	20.9 ± 4.3	22.1 ± 2.6
sgRNA knockout: sgATF3, 10000 nM	3.2 ± 2	4.98 ± 0.51
sgRNA knockout: sgATF4, 10 nM	102 ± 14	97 ± 11
sgRNA knockout: sgATF4, 100 nM	83.8 ± 18	90.27 ± 0.4
sgRNA knockout: sgATF4, 1000 nM	21.7 ± 3.2	29.4 ± 1
sgRNA knockout: sgATF4, 10000 nM	4.62 ± 3	4.72 ± 0.32
sgRNA knockout: sgATF6, 10 nM	85.6 ± 8.2	96.7 ± 2.8
sgRNA knockout: sgATF6, 100 nM	95.5 ± 31	94.7 ± 12
sgRNA knockout: sgATF6, 1000 nM	20.7 ± 10	33.2 ± 13
sgRNA knockout: sgATF6, 10000 nM	3.17 ± 0.69	4.9163 ± 0.0047
sgRNA knockout: sgATG7, 10 nM	107 ± 7.4	98.3 ± 4.4
sgRNA knockout: sgATG7, 100 nM	73.8 ± 4.3	97.8 ± 4.5
sgRNA knockout: sgATG7, 1000 nM	17.6 ± 1.2	25.7 ± 2.5
sgRNA knockout: sgATG7, 10000 nM	3.99 ± 0.81	4.98 ± 0.49
sgRNA knockout: sgERN1, 10 nM	87.8 ± 3.6	102 ± 12
sgRNA knockout: sgERN1, 100 nM	88.3 ± 17	97.1 ± 14
sgRNA knockout: sgERN1, 1000 nM	18.1 ± 4.5	23.6 ± 1.3
sgRNA knockout: sgERN1, 10000 nM	2.86 ± 0.82	5.1 ± 1.9
sgRNA knockout: sgHSF1, 10 nM	94.4 ± 2.9	101 ± 3.6
sgRNA knockout: sgHSF1, 100 nM	81.8 ± 15	77.7 ± 5.8
sgRNA knockout: sgHSF1, 1000 nM	20.4 ± 4.1	22.5 ± 2.5
sgRNA knockout: sgHSF1, 10000 nM	4.22 ± 2.6	6.26 ± 1.1
sgRNA knockout: sgHSF2, 10 nM	91.6 ± 3	94.5 ± 11
sgRNA knockout: sgHSF2, 100 nM	77.7 ± 10	103 ± 7.8
sgRNA knockout: sgHSF2, 1000 nM	19.6 ± 5.6	24.63 ± 0.066
sgRNA knockout: sgHSF2, 10000 nM	4.22 ± 1.1	3.89 ± 0.78
sgRNA knockout: sgKEAP1, 10 nM	92 ± 4.4	91.9 ± 12
sgRNA knockout: sgKEAP1, 100 nM	82 ± 12	75.8 ± 3.2
sgRNA knockout: sgKEAP1, 1000 nM	24.4 ± 5.3	26.5 ± 1.6
sgRNA knockout: sgKEAP1, 10000 nM	4.33 ± 0.4	4.29 ± 1.2
sgRNA knockout: sgNFE2L2, 10 nM	92.8 ± 4.7	93.1 ± 3.3
sgRNA knockout: sgNFE2L2, 100 nM	57.4 ± 3.5	92.1 ± 6.5
sgRNA knockout: sgNFE2L2, 1000 nM	17.2 ± 0.33	24.4 ± 2.6
sgRNA knockout: sgNFE2L2, 10000 nM	3.72 ± 2.1	5.44 ± 0.82
sgRNA knockout: sgSLC35F2, 10 nM	97.1 ± 1.1	97.4 ± 3.8
sgRNA knockout: sgSLC35F2, 100 nM	84.7 ± 2.3	90.4 ± 15
sgRNA knockout: sgSLC35F2, 1000 nM	22.8 ± 1.3	27.2 ± 7.3
sgRNA knockout: sgSLC35F2, 10000 nM	6.22 ± 2.3	5.7 ± 0.41
sgRNA knockout: sgXBP1, 10 nM	80.2 ± 4.3	104 ± 14
sgRNA knockout: sgXBP1, 100 nM	76 ± 3.5	96.4 ± 2
sgRNA knockout: sgXBP1, 1000 nM	22.7 ± 0.73	25.6 ± 1.4
sgRNA knockout: sgXBP1, 10000 nM	4.87 ± 0.18	4.6 ± 0.77

Cc1ccc2c(c1)C(=O)C1(O)CCN(c3ccccc3)C1=N2 (centres undefined) [Blebbistatin]
relative cell number
Details	BT-20	HCC-38
sgRNA knockout: sgATF3, 10 nM	108 ± 18	132 ± 11
sgRNA knockout: sgATF3, 100 nM	119 ± 22	139 ± 3.7
sgRNA knockout: sgATF3, 1000 nM	122.2 ± 0.98	117 ± 5.9
sgRNA knockout: sgATF3, 10000 nM	120 ± 7.1	73.3 ± 9.9
sgRNA knockout: sgATF4, 10 nM	111 ± 12	124 ± 1.8
sgRNA knockout: sgATF4, 100 nM	138.9 ± 0.93	122 ± 3.6
sgRNA knockout: sgATF4, 1000 nM	117 ± 9.3	109 ± 6
sgRNA knockout: sgATF4, 10000 nM	119 ± 14	70.8 ± 7.7
sgRNA knockout: sgATF6, 10 nM	110 ± 13	124 ± 20
sgRNA knockout: sgATF6, 100 nM	120 ± 1.8	134 ± 32
sgRNA knockout: sgATF6, 1000 nM	120 ± 10	136 ± 9.8
sgRNA knockout: sgATF6, 10000 nM	114 ± 18	71.5 ± 8.9
sgRNA knockout: sgATG7, 10 nM	121 ± 5.4	115 ± 24
sgRNA knockout: sgATG7, 100 nM	127 ± 1	118 ± 20
sgRNA knockout: sgATG7, 1000 nM	126 ± 22	112 ± 4.7
sgRNA knockout: sgATG7, 10000 nM	112 ± 17	67.2 ± 7.1
sgRNA knockout: sgERN1, 10 nM	112 ± 24	128 ± 13
sgRNA knockout: sgERN1, 100 nM	144 ± 4.3	119 ± 9.6
sgRNA knockout: sgERN1, 1000 nM	115 ± 19	116 ± 19
sgRNA knockout: sgERN1, 10000 nM	128 ± 9	72.6 ± 11
sgRNA knockout: sgHSF1, 10 nM	97.6 ± 17	125 ± 11
sgRNA knockout: sgHSF1, 100 nM	132 ± 8.8	166 ± 32
sgRNA knockout: sgHSF1, 1000 nM	109 ± 9.5	123 ± 3.5
sgRNA knockout: sgHSF1, 10000 nM	121 ± 21	71.9 ± 12
sgRNA knockout: sgHSF2, 10 nM	111 ± 15	139 ± 10
sgRNA knockout: sgHSF2, 100 nM	137 ± 6.8	151 ± 22
sgRNA knockout: sgHSF2, 1000 nM	135 ± 17	135 ± 26
sgRNA knockout: sgHSF2, 10000 nM	144 ± 38	73.3 ± 4.9
sgRNA knockout: sgKEAP1, 10 nM	110.7 ± 0.15	134.22 ± 0.061
sgRNA knockout: sgKEAP1, 100 nM	127 ± 13	154 ± 27
sgRNA knockout: sgKEAP1, 1000 nM	123 ± 2.4	150 ± 15
sgRNA knockout: sgKEAP1, 10000 nM	124 ± 25	85.7 ± 16
sgRNA knockout: sgNFE2L2, 10 nM	132 ± 23	117 ± 16
sgRNA knockout: sgNFE2L2, 100 nM	151 ± 12	116 ± 15
sgRNA knockout: sgNFE2L2, 1000 nM	130 ± 7.3	107.3 ± 0.34
sgRNA knockout: sgNFE2L2, 10000 nM	128 ± 29	71.5 ± 16
sgRNA knockout: sgSLC35F2, 10 nM	106.1 ± 0.94	121 ± 11
sgRNA knockout: sgSLC35F2, 100 nM	131 ± 12	130 ± 7.6
sgRNA knockout: sgSLC35F2, 1000 nM	117 ± 2.7	122 ± 12
sgRNA knockout: sgSLC35F2, 10000 nM	97.4 ± 11	74.2 ± 5
sgRNA knockout: sgXBP1, 10 nM	119 ± 14	125 ± 3.9
sgRNA knockout: sgXBP1, 100 nM	133 ± 27	124 ± 15
sgRNA knockout: sgXBP1, 1000 nM	124 ± 8.8	119 ± 18
sgRNA knockout: sgXBP1, 10000 nM	117 ± 14	68.7 ± 4.7

C=CC(=O)Nc1cc2c(Nc3ccc(F)c(Cl)c3)ncnc2cc1OCCCN1CCOCC1 [Canertinib]
relative cell number
Details	BT-20	HCC-38
sgRNA knockout: sgATF3, 10 nM	89.4 ± 4.3	98.2 ± 8.3
sgRNA knockout: sgATF3, 100 nM	68.6 ± 4.3	93.74 ± 0.7
sgRNA knockout: sgATF3, 1000 nM	89.2 ± 1.4	85.1 ± 12
sgRNA knockout: sgATF3, 10000 nM	33 ± 5.9	8.61 ± 2
sgRNA knockout: sgATF4, 10 nM	92 ± 9.8	97.4 ± 5.4
sgRNA knockout: sgATF4, 100 nM	86.4 ± 3	110 ± 3.6
sgRNA knockout: sgATF4, 1000 nM	75.9 ± 6.3	81.2 ± 8.9
sgRNA knockout: sgATF4, 10000 nM	30.7 ± 0.96	9.98 ± 1.8
sgRNA knockout: sgATF6, 10 nM	86.6 ± 27	105 ± 4.8
sgRNA knockout: sgATF6, 100 nM	60.7 ± 0.73	84.3 ± 12
sgRNA knockout: sgATF6, 1000 nM	77 ± 20	88 ± 14
sgRNA knockout: sgATF6, 10000 nM	38 ± 6.2	8.29 ± 3.6
sgRNA knockout: sgATG7, 10 nM	91 ± 14	96.6 ± 7.6
sgRNA knockout: sgATG7, 100 nM	78.1 ± 14	103 ± 5
sgRNA knockout: sgATG7, 1000 nM	74.4 ± 6.2	82.1 ± 15
sgRNA knockout: sgATG7, 10000 nM	39.5 ± 3.9	7.85 ± 1.2
sgRNA knockout: sgERN1, 10 nM	80.2 ± 6.9	93.4 ± 6.2
sgRNA knockout: sgERN1, 100 nM	71.2 ± 6.1	96.4 ± 4.2
sgRNA knockout: sgERN1, 1000 nM	70.8 ± 1.7	79.2 ± 4.2
sgRNA knockout: sgERN1, 10000 nM	36.3 ± 1.1	8.04 ± 0.85
sgRNA knockout: sgHSF1, 10 nM	89.6 ± 12	85.9 ± 12
sgRNA knockout: sgHSF1, 100 nM	73.6 ± 2.8	80 ± 12
sgRNA knockout: sgHSF1, 1000 nM	77.2 ± 4.3	83.4 ± 3.9
sgRNA knockout: sgHSF1, 10000 nM	37.6 ± 1.8	12.6 ± 4
sgRNA knockout: sgHSF2, 10 nM	76.9 ± 7.4	94.5 ± 6.4
sgRNA knockout: sgHSF2, 100 nM	75.7 ± 2.7	108 ± 7.8
sgRNA knockout: sgHSF2, 1000 nM	78.2 ± 6.6	82.6 ± 20
sgRNA knockout: sgHSF2, 10000 nM	34.2 ± 7.8	13.4 ± 1.6
sgRNA knockout: sgKEAP1, 10 nM	84.2 ± 2.4	97.9 ± 6.6
sgRNA knockout: sgKEAP1, 100 nM	90.25 ± 0.68	95.4 ± 7.2
sgRNA knockout: sgKEAP1, 1000 nM	73.6 ± 3.3	83 ± 29
sgRNA knockout: sgKEAP1, 10000 nM	33.9 ± 0.76	6.79 ± 4.2
sgRNA knockout: sgNFE2L2, 10 nM	74 ± 9.8	96.5 ± 0.94
sgRNA knockout: sgNFE2L2, 100 nM	74.4 ± 5.3	106 ± 4
sgRNA knockout: sgNFE2L2, 1000 nM	71.4 ± 6.1	78.2 ± 6.6
sgRNA knockout: sgNFE2L2, 10000 nM	36.8 ± 1.6	8.19 ± 0.68
sgRNA knockout: sgSLC35F2, 10 nM	83.6 ± 3.4	94.5 ± 12
sgRNA knockout: sgSLC35F2, 100 nM	81.6 ± 16	101 ± 4.2
sgRNA knockout: sgSLC35F2, 1000 nM	72.5 ± 9.7	85.5 ± 9.2
sgRNA knockout: sgSLC35F2, 10000 nM	41.2 ± 3.1	10.1 ± 0.11
sgRNA knockout: sgXBP1, 10 nM	86.7 ± 4	97.6 ± 2.7
sgRNA knockout: sgXBP1, 100 nM	97.1 ± 1.2	100 ± 1.6
sgRNA knockout: sgXBP1, 1000 nM	79 ± 16	79.5 ± 14
sgRNA knockout: sgXBP1, 10000 nM	35.7 ± 3	9.02 ± 0.15
